In PubChem BioAssay AID504467 (National Center for Advancing Translational Sciences (NCATS), 2011):
The campaign covered roughly 330,000 compounds. About 7,700 (2.3%) were called active. Inconclusive results, whose numbers are uncertain, are shown with a selection of clear calls. Calls come from the whole dose curve; as a rule, active = well fitted inhibition curve with a large enough effect; inconclusive = small, poorly fitted or top-dose-only effect, or effect the other way; inactive = flat fitted curve, though single readings scatter. Where the call is inconclusive, the potency comes from a doubtful curve fit.

Test: qHTS screen for small molecules that inhibit ELG1-dependent DNA repair in human embryonic kidney (HEK293T) cells expressing luciferase-tagged ELG1; note: nearly all actives have a fitted effect of over 55% in size
Details: HEK293T ELG1-luciferase reporter, luminescence, 16 h, DNA damage induced by 5-fluorouridine; activity change, negative = inhibition: at 46.1 µM (top of the series)
Outline: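 Quantitative HTS, concentration-response format. 2,000 cells/well co-treated with 5-fluorouridine and compound, 16 hr in 5% CO2 at 37 °C; ONE-Glo luminescence read after 30 min.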
% is set by controls: 0 for no effect and ±100 for the full control effect; potency is the fitted concentration of half-maximal effect.

| Compound | Potency | activity change, negative = inhibition |
| --- | --- | --- |
| Cc1cc(C(=O)COc2ccc3ccc(=O)oc3c2)c(C)n1Cc1cccs1 | inconclusive: 16.4 µM [inhibitor, single point] |  |
| CCN(C(=O)COC(=O)c1ccc2c(c1)OCO2)c1ccc(F)cc1 |  | inactive: 10.3% |
| CCOc1ccc(NC(=O)c2ccc(Br)o2)c([N+](=O)[O-])c1 | inconclusive: 6.51 µM [activator, partial curve] |  |
| CC(=O)N1CCN(C(=O)C2(NC(=O)Nc3ccc(C)cc3)CCCCC2)CC1 | inconclusive: 25.9 µM [activator, single point] |  |
| O=C(Nc1ccc(Cl)cc1Cl)c1ccc(Br)o1 | inconclusive: 11.2 µM [activator, partial curve, poor fit] |  |
| CC(NC(=S)NCCc1ccccc1)C(c1cccs1)N1CCN(Cc2ccccc2)CC1 (stereo unspecified) | inconclusive: 29.1 µM [inhibitor, single point] |  |
| C=C(C)[C@@H]1CC=C(CN2CCC(N3CCC(C(=O)N4CCCC4)CC3)CC2)CC1 | inconclusive: 5.8 µM [inhibitor, partial curve, poor fit] |  |
| CN(CC(=O)Nc1cccc(F)c1)C(=O)c1cn(-c2ccccc2)nc1-c1ccccc1 |  | inactive: 18.6% |
| Cc1cc(=S)nc(-c2ccccn2)[nH]1 | inconclusive: 9.2 µM [inhibitor, partial curve] |  |
| O=C(COc1ccc2ccc(=O)oc2c1)N1CCN(C(=O)C2COc3ccccc3O2)CC1 (stereo unspecified) | active: 1.46 µM |  |
| Cc1cc(C)cc(NC(=S)N2C3CCCC2CC(NC(=O)C2CC2)C3)c1 (stereo unspecified) |  | inactive: -3.97% |
| CCCn1c(C)cc(C(=O)CSc2nnc3n(CCC)c(=O)c4ccccc4n23)c1C |  | inactive: 7% |
| COc1cc2c(cc1NCc1ccc3c(c1)OCO3)oc1ccccc12 | inconclusive: 29.1 µM [activator, single point] |  |
| CCOC(=O)c1c(CN2CCN(CCO)CC2)n(-c2ccccc2)c2cc(Br)c(O)cc12 | inconclusive: 0.13 µM [activator, full curve] |  |
| CSC1=NC(=O)/C(=C\c2cccc3ccccc23)S1 |  | inactive: 0% |
| COc1ccc(-c2noc(CCC(=O)Nc3cccc(C)c3)n2)cc1 | inconclusive: 25.9 µM [inhibitor, single point] |  |
| Cc1ccc(CCNC(=O)c2cc(S(=O)(=O)N3CCCC3)cn2C)cc1 |  | inactive: 0.842% |
| O=C(CSc1nc2[nH]ncc2c(=O)n1-c1ccc(Cl)c(Cl)c1)NCc1ccccc1Cl | inconclusive: 29.1 µM [inhibitor, single point] |  |
| CN(CCC#N)C(=O)CC1(Cc2ccccc2)CCOC(C)(C)C1 (stereo unspecified) | inconclusive: 32.6 µM [activator, partial curve, poor fit] |  |
| O=C(NCc1ccccn1)c1cc(-c2ccccc2Cl)nc2ccccc12 | inconclusive: 18.4 µM [inhibitor, single point] |  |
| Cc1nc(NC(=O)CN2CC(C)OC(C)C2)sc1C(=O)N(C)C (stereo unspecified) |  | inactive: 2.74% |
| O=C(N/N=C/c1ccc([N+](=O)[O-])cc1)c1cnccn1 | inconclusive: 29.1 µM [activator, single point] |  |
| CN(CCOc1ccccc1)C(=O)c1ccc2c(c1)OCO2 | inconclusive: 13 µM [activator, partial curve] |  |

| Compound | Potency | activity change, negative = inhibition |
| --- | --- | --- |
| C=CCSc1nc(N)c2c(C)c(C)sc2n1 | inconclusive: 18.4 µM [activator, partial curve] |  |
| CCS(=O)(=O)N1Cc2ccccc2CC1C(=O)OCC(=O)Nc1ccc(SC(F)F)cc1 (stereo unspecified) | inconclusive: 23.1 µM [inhibitor, partial curve, poor fit] |  |
| COc1ccccc1C(=O)NCCC(=O)NCc1cccs1 |  | inactive: 10.8% |
| CCn1c(CSc2nc(C)cc(C)n2)nnc1SCC(=O)Nc1nc(-c2ccccc2)cs1 |  | inactive: -4.98% |
| N#C/C(=C\c1ccccc1C(=O)O)c1nc2ccccc2[nH]1 |  | inactive: -14.3% |
| CCC1C(C#N)=C(SCC(N)=O)NC2=C1C(=O)CC(C)(C)C2 (stereo unspecified) | inconclusive: 29.1 µM [inhibitor, single point] |  |
| COc1ccc(NC(=O)COc2cccc(C(F)(F)F)c2)cn1 |  | inactive: 14.3% |
| COc1ccc(Nc2ncnc3c2cnn3-c2cccc(C)c2)cc1OC |  | inactive: 10.5% |
| COc1ccc(C(=O)OCc2c(-c3ccccc3)ncc3ccccc23)cc1 | inconclusive: 23.1 µM [inhibitor, single point] |  |
| COC(=O)c1ccccc1NC(=O)CN(C)S(=O)(=O)c1cc(C)ccc1OC | inconclusive: 20.6 µM [inhibitor, single point] |  |
| Cc1cccc(OCC(=O)NCc2cc(C)nc3ccccc23)c1 | active: 14.6 µM |  |
| COCCCNC(=S)Nc1ccc2nc3n(c(=O)c2c1)CCCCC3 |  | inactive: 14% |
| COc1ccc(C2NCCc3c2[nH]c2ccccc32)cc1CSc1nc2ccccc2s1 (stereo unspecified) | inconclusive: 23.1 µM [inhibitor, single point] |  |
| O=C(CN1CCSCC1)N/N=C/c1ccc(F)cc1F | inconclusive: 23.1 µM [activator, partial curve, poor fit] |  |
| O=C(c1ccccc1)N1CCN(CCc2ccccn2)CC1 |  | inactive: -0.411% |
| CC(=O)c1ccc(OCC(O)CN2CCCC(C)C2)cc1 (stereo unspecified) |  | inactive: 16.5% |
| O=C(NCc1ccc2[nH]c3c(c2c1)CCCC3)N1CCOCC1 | inconclusive: 14.6 µM [inhibitor, partial curve] |  |
| COc1ccc(NC(C)=O)cc1NC(=O)c1cccc(S(=O)(=O)N2CCc3ccccc32)c1 | inconclusive: 12.6 µM [inhibitor, single point] |  |
| COc1ccc(-c2noc(CCc3ccccc3)n2)cc1 | inconclusive: 16.4 µM [activator, single point] |  |
| Cc1cccc(C(=O)Nc2ccc3c(c2)ncn3C)c1 | inconclusive: 9.2 µM [activator, partial curve] |  |
| O=C(Nc1ccc(Cl)cn1)Nc1ccccc1F | inconclusive: 11.6 µM [activator, partial curve] |  |
| O=C(Nc1ccc(Cl)cc1Cl)c1ccc2c(=O)n3c(nc2c1)CCC3 | inconclusive: 6.51 µM [activator, partial curve] |  |
| Cc1c(N=C2C=C(Br)C(=O)C(Br)=C2)c(=O)n(-c2ccccc2)n1C | inconclusive: 32.6 µM [inhibitor, partial curve, poor fit] |  |

By substructure: those above with an aryl methoxy group.

| Compound | Potency | activity change, negative = inhibition |
| --- | --- | --- |
| COc1cc2c(cc1NCc1ccc3c(c1)OCO3)oc1ccccc12 | inconclusive: 29.1 µM [activator, single point] |  |
| COc1ccc(-c2noc(CCC(=O)Nc3cccc(C)c3)n2)cc1 | inconclusive: 25.9 µM [inhibitor, single point] |  |
| COc1ccccc1C(=O)NCCC(=O)NCc1cccs1 |  | inactive: 10.8% |
| COc1ccc(NC(=O)COc2cccc(C(F)(F)F)c2)cn1 |  | inactive: 14.3% |
| COc1ccc(Nc2ncnc3c2cnn3-c2cccc(C)c2)cc1OC |  | inactive: 10.5% |
| COc1ccc(C(=O)OCc2c(-c3ccccc3)ncc3ccccc23)cc1 | inconclusive: 23.1 µM [inhibitor, single point] |  |
| COC(=O)c1ccccc1NC(=O)CN(C)S(=O)(=O)c1cc(C)ccc1OC | inconclusive: 20.6 µM [inhibitor, single point] |  |
| COc1ccc(C2NCCc3c2[nH]c2ccccc32)cc1CSc1nc2ccccc2s1 (stereo unspecified) | inconclusive: 23.1 µM [inhibitor, single point] |  |
| COc1ccc(NC(C)=O)cc1NC(=O)c1cccc(S(=O)(=O)N2CCc3ccccc32)c1 | inconclusive: 12.6 µM [inhibitor, single point] |  |
| COc1ccc(-c2noc(CCc3ccccc3)n2)cc1 | inconclusive: 16.4 µM [activator, single point] |  |
